Laboratory results as given in paper doi:10.1101/2023.05.01.538945.
Results are given in words; binding and its absence hold for the method and conditions named. Some binding calls cover weakened binding; strength is not graded here. Sequences can lack the tags named with a protein.

Columns and labels:
[1] = target: T1, Bacillus cereus VD045 GajA (Gabija protein A), co-expressed with GajB, tag removed (Bacillus cereus VD045) (UniProt J8H9C1); assay: SEC
T1 sequence: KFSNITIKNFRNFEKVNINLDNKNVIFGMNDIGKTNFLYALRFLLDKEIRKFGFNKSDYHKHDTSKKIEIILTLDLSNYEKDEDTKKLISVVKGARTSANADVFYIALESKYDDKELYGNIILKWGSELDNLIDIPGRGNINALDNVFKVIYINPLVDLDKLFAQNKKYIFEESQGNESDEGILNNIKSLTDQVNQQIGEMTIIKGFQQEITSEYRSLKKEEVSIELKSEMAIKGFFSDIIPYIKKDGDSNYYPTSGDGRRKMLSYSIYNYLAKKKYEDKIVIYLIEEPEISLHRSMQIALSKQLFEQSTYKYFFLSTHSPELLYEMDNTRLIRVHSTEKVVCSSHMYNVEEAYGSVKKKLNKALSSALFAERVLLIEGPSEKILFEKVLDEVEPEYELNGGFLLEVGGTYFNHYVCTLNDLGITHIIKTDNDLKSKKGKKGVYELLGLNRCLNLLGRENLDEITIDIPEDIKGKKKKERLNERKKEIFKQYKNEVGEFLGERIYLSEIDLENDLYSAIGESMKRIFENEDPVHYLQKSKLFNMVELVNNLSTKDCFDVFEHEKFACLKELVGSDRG

[2] = target: T2, SUMO2-tagged Bacillus cereus VD045 GajA (chain of the SUMO2-GajAB complex) (Bacillus cereus VD045) (UniProt J8H9C1); assay: cryo-EM structure
T2 sequence: T1 sequence

B1: Bacillus cereus VD045 GajB (Gabija protein B), untagged, co-expressed with GajA (enzyme, UniProt J8HQ06 2-494)
chain: SREQIIKDGGNILVTAGAGSGKTTILVSKIEADLKENKTHYSIAAVTFTNKAAKEIEGRLGYSSRGNFIGTNDGFVESEIIRPFIKDAFGNDYPDNFTAEYFDNQFASYDKGLQVLKYQNILGTYSNPKKNFKFQLALDILKKSLVARQYIFSKYFKIFIDEYQDSDKDMHNLFMYLKDQLKIKLFIVGDPKQSIYIWRGAEPENFNGLIENSTDFNKYHLTSNFRCCQDIQNYSNLFNEETRSLIKEKNEVQNVISIADDMPISDILLKLTEEKQVLNIEAELVILVRRRNQAIEIMKELNEEGFNFIFIPQTPLDRATPNATLLKEVIKYVKNDRYSIYDLAAEIVGNLSSREIKEIQKIINELLVPNINQVLINQVLINLFAKLEITLDTREITAFTEVMMTNEFDIAFDTNEYLHKIFTVHSAKGLEFNQVIITASDYNVHYNRDTNEHYVATTRAKDKLIVIMDNKKYSDYIETLMKELKIKNIIKSI
Q: How did the binding [1] turn out when B1 was run?
A: binds

Q: What about the binding [2] of the same binder?
A: binds
